Results as given in publication PMC3605159, “Twist1 Controls a Cell-Specification Switch Governing Cell Fate Decisions within the Cardiac Neural Crest” (PLoS Genetics, 2013).
Results are given in words; binding and its absence hold for the method and conditions named. Binding seen in cells or lysates may run through a third protein. Some results given as binding are weak or reduced against the parent protein; the word gives no strength.

Amino acid sequences for entries named in this document (tags omitted).
UniProt O35690: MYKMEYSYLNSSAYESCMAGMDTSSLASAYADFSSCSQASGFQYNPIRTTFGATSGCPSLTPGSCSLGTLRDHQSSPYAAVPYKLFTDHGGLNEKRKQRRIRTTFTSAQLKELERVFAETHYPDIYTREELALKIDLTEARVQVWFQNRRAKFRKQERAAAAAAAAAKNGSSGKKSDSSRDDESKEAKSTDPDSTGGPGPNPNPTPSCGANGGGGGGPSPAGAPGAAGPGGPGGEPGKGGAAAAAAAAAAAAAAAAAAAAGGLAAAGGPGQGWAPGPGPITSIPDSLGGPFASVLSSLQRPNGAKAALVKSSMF

T1: Ascl1 (UniProt Q02067)
T1 sequence: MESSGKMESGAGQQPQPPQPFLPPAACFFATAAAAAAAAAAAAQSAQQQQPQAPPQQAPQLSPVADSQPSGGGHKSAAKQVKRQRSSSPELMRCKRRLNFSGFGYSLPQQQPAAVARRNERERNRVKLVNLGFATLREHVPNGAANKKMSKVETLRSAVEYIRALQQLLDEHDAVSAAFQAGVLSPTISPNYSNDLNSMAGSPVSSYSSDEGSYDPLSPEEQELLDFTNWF

T2: Sox10 (rat, UniProt O55170 1-466)
T2 sequence (looked up): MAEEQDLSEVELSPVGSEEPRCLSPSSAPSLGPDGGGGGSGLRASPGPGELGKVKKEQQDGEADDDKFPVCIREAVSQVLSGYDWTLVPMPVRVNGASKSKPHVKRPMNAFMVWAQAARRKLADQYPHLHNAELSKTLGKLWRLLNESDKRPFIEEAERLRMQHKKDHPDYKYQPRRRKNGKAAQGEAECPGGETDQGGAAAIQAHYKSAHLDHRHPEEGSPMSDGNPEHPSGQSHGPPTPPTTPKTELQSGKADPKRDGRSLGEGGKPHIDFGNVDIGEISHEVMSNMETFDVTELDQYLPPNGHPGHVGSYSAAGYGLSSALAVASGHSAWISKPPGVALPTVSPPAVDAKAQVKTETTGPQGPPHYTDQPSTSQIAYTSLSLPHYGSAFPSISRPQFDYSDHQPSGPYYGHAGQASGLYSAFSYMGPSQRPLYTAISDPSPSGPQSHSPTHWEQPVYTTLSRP


Tests used:
Ascl1 = target: T1, Ascl1; assay: co-IP; data not shown
Twist1 = Twist1 (UniProt P26687); assay: co-IP; unpublished results; Twist1 homodimerization
Sox10 = target: T2, Sox10; assay: co-IP; HEK 293 cells, epitope-tagged proteins, α-Myc and α-Flag; n = 3; densitometry with BioRad Quantity One
Phox2b = Phox2b (UniProt O35690); assay: as above
Twist1 S192P = Twist1 S192P (UniProt P26687); assay: co-IP; unpublished results; Twist1 homodimerization

Binder | binding (Ascl1) | binding (Twist1) | binding (Sox10) | binding (Phox2b) | binding (Twist1 S192P)
Twist1 (natural protein, UniProt P26687 1-206, looked up) MMQDVSSSPVSPADDSLSNSEEEPDRQQPASGKRGARKRRSSRRSAGGSAGPGGATGGGIGGGDEPGSPAQGKRGKKSAGGGGGGGAGGGGGGGGGSSSGGGSPQSYEELQTQRVMANVRERQRTQSLNEAFAALRKIIPTLPSDKLSKIQTLKLAARYIDFLYQVLQSDELDSKMASCSYVAHERLSYAFSVWRMEGAWSMSASH | binds | binds | binds | binds | 
Twist1 S192P (natural protein, UniProt P26687 1-206, looked up) MMQDVSSSPVSPADDSLSNSEEEPDRQQPASGKRGARKRRSSRRSAGGSAGPGGATGGGIGGGDEPGSPAQGKRGKKSAGGGGGGGAGGGGGGGGGSSSGGGSPQSYEELQTQRVMANVRERQRTQSLNEAFAALRKIIPTLPSDKLSKIQTLKLAARYIDFLYQVLQSDELDSKMASCSYVAHERLSYAFPVWRMEGAWSMSASH |  |  |  | binds | binds
Twist1 T125;S127A (protein, UniProt P26687 1-206) MMQDVSSSPVSPADDSLSNSEEEPDRQQPASGKRGARKRRSSRRSAGGSAGPGGATGGGIGGGDEPGSPAQGKRGKKSAGGGGGGGAGGGGGGGGGSSSGGGSPQSYEELQTQRVMANVRERQRAQALNEAFAALRKIIPTLPSDKLSKIQTLKLAARYIDFLYQVLQSDELDSKMASCSYVAHERLSYAFSVWRMEGAWSMSASH |  |  |  | binds | 
